Measured values from PMC3554717.
Substitutions are numbered along the chain they refer to. Results are given in words; binding and its absence hold for the method and conditions named. In cells and extracts the contact can be indirect. Some binding calls cover weakened binding; strength is not graded here. Tags and fused reporters may be left off the sequences shown.

Sequences of proteins named here, by UniProt entry; tags and fusion partners are left off.
UniProt P41240: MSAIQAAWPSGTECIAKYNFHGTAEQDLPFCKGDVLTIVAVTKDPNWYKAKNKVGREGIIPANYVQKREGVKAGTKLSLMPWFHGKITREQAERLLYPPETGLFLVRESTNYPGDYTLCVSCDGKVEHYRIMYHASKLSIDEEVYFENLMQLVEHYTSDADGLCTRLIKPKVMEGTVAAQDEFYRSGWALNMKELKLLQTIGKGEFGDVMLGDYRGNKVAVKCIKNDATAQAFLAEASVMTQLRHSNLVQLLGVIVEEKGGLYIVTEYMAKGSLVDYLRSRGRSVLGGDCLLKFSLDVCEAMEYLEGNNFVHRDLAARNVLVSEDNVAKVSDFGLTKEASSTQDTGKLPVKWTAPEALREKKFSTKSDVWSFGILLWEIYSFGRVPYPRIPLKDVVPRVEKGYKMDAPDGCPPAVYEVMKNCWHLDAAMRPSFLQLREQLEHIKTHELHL

What was measured:
Test in all cases: co-IP; HEK293 cells transiently transfected with myc-LYP and HA-CSK, untreated or treated with pervanadate (PV) for 5 min; lysis in 20 mM Tris/HCl pH 7.4, 150 mM NaCl, 5 mM EDTA, 1% NP-40; IP of LYP, IB for HA-CSK
[1] = biological target: T1, myc-LYPR-DA (Arg620 variant, D195A substrate trapping mutant) (human) (UniProt Q9Y2R2)
T1 sequence: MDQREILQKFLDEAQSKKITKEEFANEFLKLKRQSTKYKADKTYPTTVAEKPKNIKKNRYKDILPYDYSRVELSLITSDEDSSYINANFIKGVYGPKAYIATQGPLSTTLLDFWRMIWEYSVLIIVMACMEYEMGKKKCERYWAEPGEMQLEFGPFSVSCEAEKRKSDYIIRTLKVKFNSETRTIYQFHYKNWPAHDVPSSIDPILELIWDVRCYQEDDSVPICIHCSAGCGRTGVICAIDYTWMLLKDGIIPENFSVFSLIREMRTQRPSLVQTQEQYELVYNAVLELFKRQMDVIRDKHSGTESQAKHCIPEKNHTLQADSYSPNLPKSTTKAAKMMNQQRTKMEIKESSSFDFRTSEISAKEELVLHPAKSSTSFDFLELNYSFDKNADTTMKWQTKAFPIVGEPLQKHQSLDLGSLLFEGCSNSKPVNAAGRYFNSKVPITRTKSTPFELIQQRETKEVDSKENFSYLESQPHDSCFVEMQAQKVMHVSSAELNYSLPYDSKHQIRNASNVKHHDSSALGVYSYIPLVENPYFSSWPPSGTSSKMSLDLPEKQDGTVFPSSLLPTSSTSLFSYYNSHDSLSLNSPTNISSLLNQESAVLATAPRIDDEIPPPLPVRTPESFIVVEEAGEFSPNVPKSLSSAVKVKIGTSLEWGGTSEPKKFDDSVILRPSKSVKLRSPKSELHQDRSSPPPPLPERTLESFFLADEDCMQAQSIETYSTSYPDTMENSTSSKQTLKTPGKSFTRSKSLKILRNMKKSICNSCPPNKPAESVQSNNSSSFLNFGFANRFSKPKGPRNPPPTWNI

[2] = biological target: T2, myc-LYPW-P695A (human) (UniProt Q9Y2R2)
T2 sequence: T1 sequence with A195D, R620W, P695A

[3] = biological target: T3, LYP tagged with the myc epitope, Arg620 variant (myc-LYPR) (human) (UniProt Q9Y2R2)
T3 sequence: T1 sequence with A195D

binding [1]: binds
binding [2]: no binding
binding [3]: binds
Substance: HA-CSK (from UniProt P41240 1-450) (enzyme)
